Here are results for one molecule from publication PMC12172431.

These are yes or no findings as the source states them, for the method shown. In cells and extracts the contact can be indirect.

The target in the experiment is Flag-tagged EXON0 (AcMNPV). Description: co-IP; Sf9 cells infected with vAcWT^Ac66Flag or vAcWT^EXON0Flag (MOI 5), 48 h p.i.; lysate on Flag-conjugated magnetic beads, or anti-Ac51 antibody with protein A/G agarose, 4°C overnight; IgG control; western blot. For orientation: In western blotting, separated proteins are transferred to a membrane and probed.

B1: Ac51 (protein, UniProt P41455 1-318)
chain: MSKRVRERSVVSDETAKRIRQNEHCHAKNESFLGFCNLEEIDYYQCLKMQYVPDQKFDNDFILTVYRMANVVTKQVRPYNSIDEKHHYNTVRNVLILIKNARLVLSNSVKKQYYDDVLKLKKNTDLESYDPLITVFLQIGESVNEEIQKLRKALVNIFTNKPDKSDINNPDVVSYQFIFGRVQKLYNRAIKQKTKTIIVKRPTTMNRIQIDWKTLSEDEQKMTRQEIAEKIVKPCFEQFGTILHIYVCPLKHNRIIVEYANSESVQKAMTVNDDTRFTVTEFSVVQYYNVAKTEMVNQRIDIISKDIEDLRNALKSYT
Consider B1, for which the binding result is reported as “no binding”.
